Measurements as given in the supplement of paper PMC8256030.
Several values for one entry are separate records, joined by “and”; a condition that tells them apart may be missing. Equal values may be shown once. The list shows a part of the results. Repeats in this data set agree poorly, so a single value says little.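 HEK293T cells were given each compound shortly before transfection with a reporter in which red mCherry is followed by the SARS-CoV-2 frameshift element and then GFP in the −1 frame, so GFP appears only after frameshifting.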

Test system: SARS-CoV-2 -1 PRF reporter mCherry-FSE-GFP(-1)
Assay: mCherry (red) intensity as percent of control; higher = higher upstream reporter expression
Conditions: 10 µM; 24 h; HEK293T

In order of rising mCherry:
1. Cc1cc(C#N)cc(C)c1Oc1nc(Nc2ccc(C#N)cc2)nc(N)c1Br [etravirine]  26.5%
2. O=c1[nH]c(=O)n(C2CCCO2)cc1F (stereo not given) [tegafur]  52.2%
3. CCCN(CCC)S(=O)(=O)c1ccc(C)cc1 [ditolamide]  63.8%
4. N/C=C1\Cc2ccccc2C1=O [drinidene]  82%
5. CCNCC1CCN(c2c(F)cc3c(=O)c(C(=O)O)cn(CC)c3c2F)C1 (stereo not given) [merafloxacin]  82.5%
6. O=C(O)CN1CCN(CC(=O)O)CCN(CC(=O)O)CCN(CC(=O)O)CC1 [tetraxetan]  85.5%
7. N=C(N)NC(=O)c1nc(Cl)c(N)nc1N [amiloride]  85.5%
8. CC(=O)c1ccc2c(c1)N(CCCN1CCC(CCO)CC1)c1ccccc1S2 [piperacetazine]  88.1%
9. COc1c2occc2c(OC)c2c(=O)cc(C)oc12 [khellin]  91.8%
10. CCC(=O)OCC(=O)[C@@]1(OC(=O)CC)[C@H](C)C[C@H]2[C@H]3[C@H]([C@@H](O)C[C@@]21C)[C@@]1(C)C=CC(=O)C=C1C[C@H]3Cl [Alclometasone]  92.6%
11. CN1CCN(C2=Nc3cc(Cl)ccc3Nc3ccccc32)CC1  92.8%
12. CC(C)[C@H]1CC[C@H](C)C[C@@H]1O [racementhol]  94.4%
13. C#C[C@]1(OC(C)=O)CC[C@H]2[C@@H]3CCC4=C[C@@H](OC(C)=O)CC[C@@H]4[C@H]3CC[C@@]21C  94.8%
14. C=CC(N)CCC(=O)O (stereo not given) [vigabatrin]  96.2%
15. CC[C@H](C)[C@H](N)C1=N[C@H](C(=O)N[C@@H](CC(C)C)C(=O)N[C@H](CCC(=O)O)C(=O)N[C@H](C(=O)N[C@H]2CCCCNC(=O)[C@H](CC(N)=O)NC(=O)[C@@H](CC(=O)O)NC(=O)[C@H](Cc3cnc[nH]3)NC(=O)[C@@H](Cc3ccccc3)NC(=O)[C@H]([C@@H](C)CC)NC(=O)[C@@H](CCCN)NC2=O)[C@@H](C)CC)CS1 [Bacitracin]  96.5%
16. CCC(C/C=C/c1ccccc1)(c1ccccc1)N(C)CC1CC1 (stereo not given) [igmesine]  96.6%
17. CN(C)CCc1c[nH]c2ccc(C[C@H]3COC(=O)N3)cc12 [Zolmitriptan]  96.7%
18. CN(C)c1cc(NC(=O)CNC(C)(C)C)c(O)c2c1CC1CC3C(N(C)C)C(=O)C(C(N)=O)=C(O)C3(O)C(=O)C1=C2O (stereo not given) [Tygacil]  97.1%
19. O=C1NOCC1/N=C/c1ccc(/C=N/C2CONC2=O)cc1 (stereo not given) [terizidone]  97.5%
20. C[C@@H](O[C@H]1OCCN(Cc2nn(P(=O)(O)O)c(=O)[nH]2)[C@H]1c1ccc(F)cc1)c1cc(C(F)(F)F)cc(C(F)(F)F)c1 [Fosaprepitant]  98.1%
21. CC(CCc1ccccc1)NCC(O)c1ccc(O)c(C(N)=O)c1 (stereo not given) [labetalol]  98.4%
22. CC1(C)Oc2ccc(C#N)cc2[C@H](N2CCCC2=O)[C@H]1O [cromakalim]  99.5%
23. CCOC(=O)C1=C(C)NC(C)=C(C(=O)OCC)C1c1ccccc1/C=C/C(=O)OC(C)(C)C [lacidipine]  101%
24. NCCCC[C@H](NC(=O)[C@@H]1CCCN1C(=O)[C@@H]1CSSC[C@H](N)C(=O)N[C@@H](Cc2ccccc2)C(=O)N[C@@H](Cc2ccccc2)C(=O)N[C@@H](CCC(N)=O)C(=O)N[C@@H](CC(N)=O)C(=O)N1)C(=O)NCC(N)=O [Felypressin]  101%
25. C/C=C/C/C=C/CCC(=O)[C@H]1O[C@H]1C(N)=O [Helicocerin]  102%
26. CN[C@@H]1[C@@H](O)[C@@H](O[C@@H]2[C@@H](O)[C@H](O[C@H]3OC(CN)=CC[C@H]3N)[C@@H](N)C[C@H]2N)OC[C@]1(C)O  103%
27. N[C@@H](CSCCCO)C(=O)O [fudosteine]  103%
28. CC1(C)S[C@@H]2[C@H](N3C(=O)[C@@H](c4ccccc4)NC3(C)C)C(=O)N2[C@H]1C(=O)O [Hetacillin]  103%
29. CCOc1ccc(C[C@H]2NC(=O)CCSSC[C@@H](C(=O)N3CCC[C@H]3C(=O)N[C@@H](CCCN)C(=O)NCC(N)=O)NC(=O)[C@H](CC(N)=O)NC(=O)[C@H]([C@@H](C)O)NC(=O)[C@H]([C@@H](C)CC)NC2=O)cc1 [atosiban]  104%
30. CC(C)(Cc1ccccc1)NCC(O)c1ccc(O)c(NS(C)(=O)=O)c1 (stereo not given) [zinterol]  104%
31. CN(C)CCCN1c2ccccc2CCc2ccc(Cl)cc21 [clomipramine]  106%
32. CCCN(CCc1cccs1)[C@H]1CCc2c(O)cccc2C1 [Neupro]  109%
33. Cc1cc(=O)n(-c2ccccc2)n1C [Phenazone]  109%
34. C[C@H](O)[C@H](O)[C@H]1CNc2nc(N)[nH]c(=O)c2N1 [Sapropterin]  111%
35. CC(=O)NO [acetohydroxamic acid]  121%
36. COc1cc(Cl)nc(OC)n1  123%
37. CCCCCCCCCCCCCCCC(=O)OC[C@@H](NC(=O)C(Cl)Cl)[C@H](O)c1ccc([N+](=O)[O-])cc1  130%
38. CCCCN(CCCC)CCCOC(=O)c1ccc(N)cc1 [butacaine]  134%

In the case of `CCN[C@H]1CN(CCCOC)S(=O)(=O)c2sc(S(N)(=O)=O)cc21` [brinzolamide], the mCherry is reported as 98.4% and 99.1%.
In the case of `CC1Cc2ccccc2N1NC(=O)c1ccc(Cl)c(S(N)(=O)=O)c1` (stereo not given) [indapamide], the mCherry is reported as 96.5% and 110%.
